Results on 1 compound are retold here after patent publication US7402606B2, “Derivatives of 1-(oxoaminoacetyl) pentylcarbamate as cathepsin K inhibitors for the treatment of bone loss” (SmithKline Beecham Corporation, priority 2002, dated 2008).

Sequences of proteins named here, by UniProt entry; tags and fusion partners are left off. Residues count along the entry.
UniProt P43235, 115-329 limits assumed: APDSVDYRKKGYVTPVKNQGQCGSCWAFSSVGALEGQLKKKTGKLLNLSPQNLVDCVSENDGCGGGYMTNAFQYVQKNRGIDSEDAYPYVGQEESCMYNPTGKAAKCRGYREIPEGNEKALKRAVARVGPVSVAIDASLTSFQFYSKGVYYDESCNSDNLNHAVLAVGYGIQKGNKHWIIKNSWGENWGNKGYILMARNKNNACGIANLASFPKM

A word on the IC50: it is the concentration that gives 50% inhibition.

Not every entry of the source has a single result; some have several. Only these are listed. There may be further records. Results that share an entry differ, and nothing given here explains why; they may come from other doses, times, organisms or constructs than stated.

The experiment has as its target human cathepsin K (Homo sapiens, UniProt P43235). The experiment can be described thus: Cathepsin K inhibition assay, human recombinant enzyme, fluorogenic substrate Cbz-Phe-Arg-AMC. As to conditions: read-out: h Cat K IC50.

On to `CCCC[C@H](NC(=O)OC1C(=O)NCC1(C)C)C(=O)C(=O)N[C@H](C)c1ccccc1` (single isomer, unassigned), for which the IC50 was 1 nM to 10 nM and 10 nM to 100 nM.
